Earlier results as cited in patent publication US6999905B2, “Method for extracting significant signal, recording medium and program” (priority 2002, dated 2006).
At least one structure is not confirmed: it was looked up by name or label, or the drawing left a doubt.

System: Ca ion channel of smooth muscle cells
Settings: cited from earlier work

## COC(=O)C1=C(C)NC(C)=C(C(=O)OC)C1c1ccccc1[N+](=O)[O-] [nifedipine]
  activity of the Ca ion channel of smooth muscle cells: inhibited by nifedipine in a concentration-dependent manner
